Experimental data: publication doi:10.1101/2024.08.01.24311333
No constants are given. Whether binding was seen depends on the method and setting. In cells and extracts the contact can be indirect. Some binding calls cover weakened binding; strength is not graded here. For some of these results: Tags and fused reporters may be left off the sequences shown.

By UniProt entry, the sequences of proteins in these tests, tags left out. Residues count along the entry.
UniProt P24394, residues 26-825: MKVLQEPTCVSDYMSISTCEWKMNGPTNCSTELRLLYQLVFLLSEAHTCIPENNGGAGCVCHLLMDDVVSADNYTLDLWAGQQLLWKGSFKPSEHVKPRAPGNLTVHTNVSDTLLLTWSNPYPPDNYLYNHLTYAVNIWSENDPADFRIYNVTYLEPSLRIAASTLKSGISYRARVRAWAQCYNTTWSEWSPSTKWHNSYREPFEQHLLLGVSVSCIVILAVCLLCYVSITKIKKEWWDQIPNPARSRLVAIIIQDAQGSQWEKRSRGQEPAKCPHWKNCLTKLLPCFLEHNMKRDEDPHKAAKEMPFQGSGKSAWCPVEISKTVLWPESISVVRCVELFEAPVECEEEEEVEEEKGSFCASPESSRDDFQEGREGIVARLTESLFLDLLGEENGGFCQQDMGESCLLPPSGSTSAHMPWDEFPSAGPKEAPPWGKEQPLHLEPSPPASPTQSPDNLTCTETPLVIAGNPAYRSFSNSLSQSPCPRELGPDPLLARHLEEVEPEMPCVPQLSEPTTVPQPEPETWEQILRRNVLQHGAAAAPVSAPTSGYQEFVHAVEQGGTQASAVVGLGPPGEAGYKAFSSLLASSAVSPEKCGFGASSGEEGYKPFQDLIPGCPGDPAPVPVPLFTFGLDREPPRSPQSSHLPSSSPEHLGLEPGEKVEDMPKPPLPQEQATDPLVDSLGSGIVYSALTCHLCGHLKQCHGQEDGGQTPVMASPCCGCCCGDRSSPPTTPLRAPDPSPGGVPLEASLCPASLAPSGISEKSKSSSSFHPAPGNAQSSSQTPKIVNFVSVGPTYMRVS
UniProt Q9UNE7: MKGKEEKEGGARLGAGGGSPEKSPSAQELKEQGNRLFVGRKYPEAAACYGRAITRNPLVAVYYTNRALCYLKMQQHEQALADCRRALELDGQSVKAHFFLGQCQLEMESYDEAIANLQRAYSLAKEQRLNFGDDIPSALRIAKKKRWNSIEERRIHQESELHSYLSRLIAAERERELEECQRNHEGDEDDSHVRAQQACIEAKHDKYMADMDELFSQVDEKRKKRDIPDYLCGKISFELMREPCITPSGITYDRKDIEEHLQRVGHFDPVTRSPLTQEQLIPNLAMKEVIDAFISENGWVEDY

T1: Cadherin-26, FLAG-tagged, full-CDH26 (1-832) (human) (UniProt Q8IXH8)
T1 sequence: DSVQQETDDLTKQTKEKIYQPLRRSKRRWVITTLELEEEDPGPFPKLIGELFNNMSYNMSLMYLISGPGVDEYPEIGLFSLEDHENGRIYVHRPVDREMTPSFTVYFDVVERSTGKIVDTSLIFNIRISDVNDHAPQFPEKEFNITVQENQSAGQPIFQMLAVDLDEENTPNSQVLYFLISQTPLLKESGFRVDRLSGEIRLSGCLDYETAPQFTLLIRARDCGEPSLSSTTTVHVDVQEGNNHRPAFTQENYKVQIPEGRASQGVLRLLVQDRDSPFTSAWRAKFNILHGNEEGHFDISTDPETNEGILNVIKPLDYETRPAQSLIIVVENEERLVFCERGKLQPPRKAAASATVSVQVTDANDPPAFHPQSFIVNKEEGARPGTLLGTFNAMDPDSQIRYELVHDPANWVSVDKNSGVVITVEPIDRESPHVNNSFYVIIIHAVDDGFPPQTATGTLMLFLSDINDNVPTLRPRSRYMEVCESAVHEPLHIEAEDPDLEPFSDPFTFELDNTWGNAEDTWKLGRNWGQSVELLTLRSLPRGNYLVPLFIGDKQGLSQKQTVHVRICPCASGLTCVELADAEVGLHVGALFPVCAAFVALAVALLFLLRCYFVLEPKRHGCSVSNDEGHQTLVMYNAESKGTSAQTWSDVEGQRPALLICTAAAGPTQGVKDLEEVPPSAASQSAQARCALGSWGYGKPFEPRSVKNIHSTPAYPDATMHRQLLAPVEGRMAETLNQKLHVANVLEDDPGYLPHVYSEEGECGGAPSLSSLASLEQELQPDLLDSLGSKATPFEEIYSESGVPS

T2: del-CDH26, FLAG-tagged (deleting amino acids 716-724, 787-794 and 802-817) (human) (UniProt Q8IXH8)
T2 sequence: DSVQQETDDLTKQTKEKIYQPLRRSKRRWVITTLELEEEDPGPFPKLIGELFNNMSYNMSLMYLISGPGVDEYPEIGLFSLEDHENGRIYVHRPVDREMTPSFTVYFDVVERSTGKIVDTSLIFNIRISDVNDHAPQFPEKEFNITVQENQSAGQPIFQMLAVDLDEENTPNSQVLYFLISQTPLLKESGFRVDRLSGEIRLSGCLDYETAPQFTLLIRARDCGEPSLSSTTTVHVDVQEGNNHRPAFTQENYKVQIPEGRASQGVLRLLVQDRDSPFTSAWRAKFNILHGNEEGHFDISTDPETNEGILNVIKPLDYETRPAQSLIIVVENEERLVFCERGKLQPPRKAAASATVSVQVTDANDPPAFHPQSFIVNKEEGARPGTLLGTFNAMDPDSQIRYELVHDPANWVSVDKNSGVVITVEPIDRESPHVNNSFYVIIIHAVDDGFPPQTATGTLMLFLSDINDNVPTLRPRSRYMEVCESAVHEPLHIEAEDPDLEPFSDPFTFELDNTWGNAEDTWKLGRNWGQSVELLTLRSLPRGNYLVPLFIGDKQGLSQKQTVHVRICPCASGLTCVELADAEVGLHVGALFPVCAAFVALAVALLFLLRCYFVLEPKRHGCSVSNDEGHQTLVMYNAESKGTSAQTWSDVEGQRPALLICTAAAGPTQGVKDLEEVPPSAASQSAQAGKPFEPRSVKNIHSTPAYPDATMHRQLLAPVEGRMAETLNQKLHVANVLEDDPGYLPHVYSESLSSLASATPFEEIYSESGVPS


What was measured:
Assay in all cases: co-IP
[1] = target: T1, Cadherin-26, FLAG-tagged, full-CDH26 (1-832) (human)
[2] = target: T2, del-CDH26, FLAG-tagged (deleting amino acids 716-724, 787-794 and 802-817) (human)
[3] = target: Interleukin-4 receptor subunit alpha, GFP-tagged (UniProt P24394)
[4] = target: STIP1 homology and U-box-containing protein 1 (human (endogenous in HEK-293T)) (UniProt Q9UNE7)

binding [1]	binding [2]	binding [3]	binding [4]	Molecule
binds	binds	binds	–	STIP1 homology and U-box-containing protein 1 (from UniProt Q9UNE7 1-303) (enzyme)
–	–	–	binds	Cadherin-26, FLAG-tagged, full-CDH26 (1-832) (protein, UniProt Q8IXH8 28-832) DSVQQETDDLTKQTKEKIYQPLRRSKRRWVITTLELEEEDPGPFPKLIGELFNNMSYNMSLMYLISGPGVDEYPEIGLFSLEDHENGRIYVHRPVDREMTPSFTVYFDVVERSTGKIVDTSLIFNIRISDVNDHAPQFPEKEFNITVQENQSAGQPIFQMLAVDLDEENTPNSQVLYFLISQTPLLKESGFRVDRLSGEIRLSGCLDYETAPQFTLLIRARDCGEPSLSSTTTVHVDVQEGNNHRPAFTQENYKVQIPEGRASQGVLRLLVQDRDSPFTSAWRAKFNILHGNEEGHFDISTDPETNEGILNVIKPLDYETRPAQSLIIVVENEERLVFCERGKLQPPRKAAASATVSVQVTDANDPPAFHPQSFIVNKEEGARPGTLLGTFNAMDPDSQIRYELVHDPANWVSVDKNSGVVITVEPIDRESPHVNNSFYVIIIHAVDDGFPPQTATGTLMLFLSDINDNVPTLRPRSRYMEVCESAVHEPLHIEAEDPDLEPFSDPFTFELDNTWGNAEDTWKLGRNWGQSVELLTLRSLPRGNYLVPLFIGDKQGLSQKQTVHVRICPCASGLTCVELADAEVGLHVGALFPVCAAFVALAVALLFLLRCYFVLEPKRHGCSVSNDEGHQTLVMYNAESKGTSAQTWSDVEGQRPALLICTAAAGPTQGVKDLEEVPPSAASQSAQARCALGSWGYGKPFEPRSVKNIHSTPAYPDATMHRQLLAPVEGRMAETLNQKLHVANVLEDDPGYLPHVYSEEGECGGAPSLSSLASLEQELQPDLLDSLGSKATPFEEIYSESGVPS
